No constants are given. Whether binding was seen depends on the method and setting. In cells and extracts the contact can be indirect.
Target: T1, KH-type splicing regulatory protein (KSRP) (human (endogenous in Huh7)) (UniProt Q92945)
T1 sequence: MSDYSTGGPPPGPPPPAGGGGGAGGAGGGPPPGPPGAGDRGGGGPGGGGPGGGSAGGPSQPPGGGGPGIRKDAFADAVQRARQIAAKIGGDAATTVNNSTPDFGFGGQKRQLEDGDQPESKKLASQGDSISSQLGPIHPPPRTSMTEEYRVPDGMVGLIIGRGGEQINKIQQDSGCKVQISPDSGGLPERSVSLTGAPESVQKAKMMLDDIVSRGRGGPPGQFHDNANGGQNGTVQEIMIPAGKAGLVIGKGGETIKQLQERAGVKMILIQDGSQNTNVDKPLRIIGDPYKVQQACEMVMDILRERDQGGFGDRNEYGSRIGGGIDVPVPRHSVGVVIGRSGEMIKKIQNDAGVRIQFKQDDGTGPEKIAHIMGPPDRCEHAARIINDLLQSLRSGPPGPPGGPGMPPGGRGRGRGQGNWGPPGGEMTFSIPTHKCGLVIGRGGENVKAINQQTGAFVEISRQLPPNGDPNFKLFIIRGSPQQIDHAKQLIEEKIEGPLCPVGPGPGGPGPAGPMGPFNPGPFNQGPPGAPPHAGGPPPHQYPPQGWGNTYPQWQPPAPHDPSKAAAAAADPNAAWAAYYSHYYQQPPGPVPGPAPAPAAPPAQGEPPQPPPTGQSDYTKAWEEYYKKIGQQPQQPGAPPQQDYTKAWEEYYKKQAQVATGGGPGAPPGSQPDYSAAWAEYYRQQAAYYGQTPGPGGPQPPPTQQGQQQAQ
Assay: co-IP; endogenous KSRP precipitated with anti-KSRP and Protein A/G Sepharose; blotted with anti-Ago2

The chains behind the UniProt entries cited, without tags or fusion partners.
UniProt Q9UKV8: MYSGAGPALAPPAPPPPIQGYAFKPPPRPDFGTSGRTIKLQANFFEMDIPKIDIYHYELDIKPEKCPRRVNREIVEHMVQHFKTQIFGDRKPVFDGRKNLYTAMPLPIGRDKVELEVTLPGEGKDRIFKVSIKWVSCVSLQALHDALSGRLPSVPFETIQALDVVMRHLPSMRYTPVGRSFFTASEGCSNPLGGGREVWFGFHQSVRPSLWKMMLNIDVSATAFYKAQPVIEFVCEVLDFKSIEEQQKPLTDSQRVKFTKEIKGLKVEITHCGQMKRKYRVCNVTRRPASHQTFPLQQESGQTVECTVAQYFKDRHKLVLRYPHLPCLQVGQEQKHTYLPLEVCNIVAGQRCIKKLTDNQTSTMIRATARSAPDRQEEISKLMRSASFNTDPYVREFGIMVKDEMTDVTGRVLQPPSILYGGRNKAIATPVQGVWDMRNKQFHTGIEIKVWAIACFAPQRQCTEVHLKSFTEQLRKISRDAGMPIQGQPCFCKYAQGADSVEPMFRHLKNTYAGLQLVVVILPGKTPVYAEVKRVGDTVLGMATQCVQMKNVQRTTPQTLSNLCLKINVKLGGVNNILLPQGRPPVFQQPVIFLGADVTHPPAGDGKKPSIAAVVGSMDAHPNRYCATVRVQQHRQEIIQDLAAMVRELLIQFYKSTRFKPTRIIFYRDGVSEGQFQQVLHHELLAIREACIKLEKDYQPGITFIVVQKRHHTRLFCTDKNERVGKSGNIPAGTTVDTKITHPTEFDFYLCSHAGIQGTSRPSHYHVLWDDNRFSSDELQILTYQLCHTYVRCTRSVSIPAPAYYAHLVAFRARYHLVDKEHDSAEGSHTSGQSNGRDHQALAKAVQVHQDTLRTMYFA

## Argonaute 2 (Ago2) (from UniProt Q9UKV8 1-859)
  binding: no binding

Reference: PMC3174171
